Test results taken from publication PMC11113010.
No constants are given. Whether binding was seen depends on the method and setting. In cells and extracts the contact can be indirect. Some results given as binding are weak or reduced against the parent protein; the word gives no strength.

Amino acid sequences for entries named in this document (tags omitted). Residues count along the entry.
UniProt P19256, residues 29-250: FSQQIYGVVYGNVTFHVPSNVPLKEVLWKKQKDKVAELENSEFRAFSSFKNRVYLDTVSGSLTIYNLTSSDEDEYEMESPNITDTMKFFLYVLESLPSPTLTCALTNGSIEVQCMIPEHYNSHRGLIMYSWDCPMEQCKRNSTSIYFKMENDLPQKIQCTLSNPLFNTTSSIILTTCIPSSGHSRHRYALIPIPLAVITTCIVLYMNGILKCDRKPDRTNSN
UniProt Q9NZQ7, residues 19-290: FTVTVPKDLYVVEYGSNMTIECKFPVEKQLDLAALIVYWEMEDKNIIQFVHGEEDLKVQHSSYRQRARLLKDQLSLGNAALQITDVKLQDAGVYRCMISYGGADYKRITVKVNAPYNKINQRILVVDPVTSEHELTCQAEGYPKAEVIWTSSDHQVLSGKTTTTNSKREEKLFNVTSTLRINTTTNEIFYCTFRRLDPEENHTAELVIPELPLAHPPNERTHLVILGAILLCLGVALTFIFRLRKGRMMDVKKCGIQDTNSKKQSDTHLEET

Target: T1, CMTM6 (CKLF like MARVEL transmembrane domain containing 6) (human (endogenous in A375)) (UniProt Q9NX76)
T1 sequence: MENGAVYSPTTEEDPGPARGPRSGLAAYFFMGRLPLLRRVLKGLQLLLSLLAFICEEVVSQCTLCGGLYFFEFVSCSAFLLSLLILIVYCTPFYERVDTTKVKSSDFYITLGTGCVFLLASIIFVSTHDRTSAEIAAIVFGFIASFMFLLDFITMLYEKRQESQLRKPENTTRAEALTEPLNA
Assay: co-IP; whole-cell lysates of A375 cells in 1% digitonin, 50 mM Tris-HCl pH 7.5, 150 mM NaCl; anti-CMTM6, anti-CD58 or anti-PD-L1 antibody 2 h at 4°C, Protein G Dynabeads, immunoblot; knockout cells (CMTM6, CD58, PD-L1) as controls of antibody specificity

Substance | binding
CD58 (LFA-3) (from UniProt P19256 29-250) | binds
PD-L1 (from UniProt Q9NZQ7 19-290) | binds
